According to PMC4164784, “4E-BPs require non-canonical 4E-binding motifs and a lateral surface of eIF4E to repress translation” (Nature Communications, 2014):
These are yes or no findings as the source states them, for the method shown.

Biological target: T1, eIF4E (residues 69–248), purified (Drosophila melanogaster) (UniProt P48598)
T1 sequence: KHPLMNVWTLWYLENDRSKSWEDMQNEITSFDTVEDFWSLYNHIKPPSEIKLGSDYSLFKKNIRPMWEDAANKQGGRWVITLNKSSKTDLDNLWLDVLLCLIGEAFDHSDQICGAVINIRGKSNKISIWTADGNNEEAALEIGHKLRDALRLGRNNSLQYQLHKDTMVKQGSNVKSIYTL
Assay: ITC; VP-ITC, 20 °C; eIF4E (69–248, WT or mutant, 1–20 μM) in the cell, tenfold concentrated GB1-stabilized peptides titrated in; 20 mM Na-phosphate pH 7.0, 150 mM NaCl; one-site binding model; both purified

| Substance | binding |
| --- | --- |
| 4E-T L+NC peptide fused C-terminally to GB1 (Drosophila melanogaster) (domain or fragment) | no binding (tested: 200 μM peptide titrated in) |
| Thor L+NC peptide fused C-terminally to GB1 (Drosophila melanogaster) (domain or fragment) | no binding (tested: 200 μM peptide titrated in) |
